Values from PubChem BioAssay AID652243 (Drosophila RNAi Screening Center, 2013).
In all, the deposit lists about 24,000 reagents; below is an unselected part of those with a known target gene and a result. Of all reagents, 246 (1%) got an active call. 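Plates not normalised; calls are printed but the firefly/Renilla ratio behind them is not deposited; fold cut for lowering reported inconsistently.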 Raw values vary from plate to plate and are shown uncorrected. Not given: the amount of reagent.

- Screen: 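Knock-downs that decrease or increase androgen receptor reporter signal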 (primary screen)
- Cells: Drosophila S2R+ cells
- Knock-down reagent: long dsRNA against Drosophila genes
- Timing: 72 h (48 h, then 24 h hormone)
- Challenge: synthetic androgen R1881 at 10 nM for 24 h
- Measured: 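Per-well raw luminescence of the androgen-driven firefly reporter and of the Renilla control, two replicates each, without normalisation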
- Scale: firefly reporter light: higher = more light from androgen-responsive reporter; Renilla control light: higher = more constitutive control signal (cell number, transfection)
- Call rule: 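Hit when the log firefly-to-Renilla ratio dropped or increased by a fixed fold versus the mean of GFP or LacZ controls across duplicate plates; lowering cut given as 1.5 and as 3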
- Calls: active = hit: reporter lowered or raised; inactive = no hit

Rab26 [DRSC11838]
- firefly reporter light, replicate 1: 1.36e5
- firefly reporter light, replicate 2: 84934
- Renilla control light, replicate 1: 1.82e6
- Renilla control light, replicate 2: 1.74e6
- Call: inactive

Rab26 [DRSC11839]
- firefly reporter light, replicate 1: 2.64e5
- firefly reporter light, replicate 2: 3.23e5
- Renilla control light, replicate 1: 2.06e6
- Renilla control light, replicate 2: 2.97e6
- Call: inactive

Rab26 [DRSC24968]
- firefly reporter light, replicate 1: 4.02e5
- firefly reporter light, replicate 2: 3.14e5
- Renilla control light, replicate 1: 5.18e5
- Renilla control light, replicate 2: 4.52e5
- Call: inactive

Rab26 [DRSC27712]
- firefly reporter light, replicate 1: 2.33e5
- firefly reporter light, replicate 2: 2.46e5
- Renilla control light, replicate 1: 6.43e5
- Renilla control light, replicate 2: 9.22e5
- Call: inactive

CaBP1 (calcium-binding protein 1) [DRSC01984]
- firefly reporter light, replicate 1: 8.46e5
- firefly reporter light, replicate 2: 1.01e6
- Renilla control light, replicate 1: 1.20e6
- Renilla control light, replicate 2: 1.72e6
- Call: inactive

Act79B (Actin 79B) [DRSC11604]
- firefly reporter light, replicate 1: 3.38e5
- firefly reporter light, replicate 2: 2.28e5
- Renilla control light, replicate 1: 2.58e6
- Renilla control light, replicate 2: 2.07e6
- Call: inactive

Act79B (Actin 79B) [DRSC25023]
- firefly reporter light, replicate 1: 8.61e5
- firefly reporter light, replicate 2: 8.54e5
- Renilla control light, replicate 1: 1.49e6
- Renilla control light, replicate 2: 1.26e6
- Call: inactive

An excerpt from above, reduced to “Renilla control light, replicate 1”:
Rab26 [DRSC24968]: 5.18e5
Rab26 [DRSC27712]: 6.43e5

More records follow.
Atg6 (Autophagy-related 6) [DRSC15798]
- firefly reporter light, replicate 1: 1.03e5
- firefly reporter light, replicate 2: 96318
- Renilla control light, replicate 1: 4.79e5
- Renilla control light, replicate 2: 6.37e5
- Call: inactive

Atg6 (Autophagy-related 6) [DRSC24442]
- firefly reporter light, replicate 1: 6.09e5
- firefly reporter light, replicate 2: 6.34e5
- Renilla control light, replicate 1: 8.26e5
- Renilla control light, replicate 2: 1.01e6
- Call: inactive

CG34258 [DRSC38685]
- firefly reporter light, replicate 1: 1.95e6
- firefly reporter light, replicate 2: 1.92e6
- Renilla control light, replicate 1: 1.69e6
- Renilla control light, replicate 2: 2.19e6
- Call: inactive

Tom7 (Translocase of outer membrane 7) [DRSC05135]
- firefly reporter light, replicate 1: 3.47e5
- firefly reporter light, replicate 2: 4.23e5
- Renilla control light, replicate 1: 3.96e5
- Renilla control light, replicate 2: 2.96e5
- Call: inactive

Tom7 (Translocase of outer membrane 7) [DRSC07113]
- firefly reporter light, replicate 1: 2.63e5
- firefly reporter light, replicate 2: 2.27e5
- Renilla control light, replicate 1: 2.11e6
- Renilla control light, replicate 2: 1.46e6
- Call: inactive

heph (hephaestus) [DRSC14082]
- firefly reporter light, replicate 1: 9.09e5
- firefly reporter light, replicate 2: 3.34e5
- Renilla control light, replicate 1: 1.67e6
- Renilla control light, replicate 2: 5.60e5
- Call: inactive

heph (hephaestus) [DRSC14085]
- firefly reporter light, replicate 1: 1.17e6
- firefly reporter light, replicate 2: 6.38e5
- Renilla control light, replicate 1: 3.04e6
- Renilla control light, replicate 2: 1.56e6
- Call: inactive

heph (hephaestus) [DRSC16783]
- firefly reporter light, replicate 1: 1.51e5
- firefly reporter light, replicate 2: 2.40e5
- Renilla control light, replicate 1: 2.08e6
- Renilla control light, replicate 2: 2.76e6
- Call: inactive

heph (hephaestus) [DRSC39131]
- firefly reporter light, replicate 1: 1.38e6
- firefly reporter light, replicate 2: 1.16e6
- Renilla control light, replicate 1: 2.19e6
- Renilla control light, replicate 2: 2.11e6
- Call: inactive
